Paper PMC12501288
No constants are given. Whether binding was seen depends on the method and setting. For some assays here: Binding seen in cells or lysates may run through a third protein. Some entries that bind do so weakly or less than the wild type. One block for each substance: values may come before it.

By UniProt entry, the sequences of proteins in these tests, tags left out.
UniProt P01106: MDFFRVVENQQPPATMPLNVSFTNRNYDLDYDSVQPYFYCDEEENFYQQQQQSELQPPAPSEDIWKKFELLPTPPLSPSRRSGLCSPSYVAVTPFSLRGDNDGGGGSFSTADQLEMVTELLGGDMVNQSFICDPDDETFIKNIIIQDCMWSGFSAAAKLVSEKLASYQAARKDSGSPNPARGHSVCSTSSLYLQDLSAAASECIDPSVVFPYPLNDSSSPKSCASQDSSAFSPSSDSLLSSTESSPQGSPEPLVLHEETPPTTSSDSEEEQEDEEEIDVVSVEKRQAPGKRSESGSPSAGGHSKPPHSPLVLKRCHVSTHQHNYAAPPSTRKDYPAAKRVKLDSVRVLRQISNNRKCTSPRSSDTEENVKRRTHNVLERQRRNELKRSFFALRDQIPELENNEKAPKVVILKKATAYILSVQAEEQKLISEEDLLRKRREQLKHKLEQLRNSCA
UniProt P01108: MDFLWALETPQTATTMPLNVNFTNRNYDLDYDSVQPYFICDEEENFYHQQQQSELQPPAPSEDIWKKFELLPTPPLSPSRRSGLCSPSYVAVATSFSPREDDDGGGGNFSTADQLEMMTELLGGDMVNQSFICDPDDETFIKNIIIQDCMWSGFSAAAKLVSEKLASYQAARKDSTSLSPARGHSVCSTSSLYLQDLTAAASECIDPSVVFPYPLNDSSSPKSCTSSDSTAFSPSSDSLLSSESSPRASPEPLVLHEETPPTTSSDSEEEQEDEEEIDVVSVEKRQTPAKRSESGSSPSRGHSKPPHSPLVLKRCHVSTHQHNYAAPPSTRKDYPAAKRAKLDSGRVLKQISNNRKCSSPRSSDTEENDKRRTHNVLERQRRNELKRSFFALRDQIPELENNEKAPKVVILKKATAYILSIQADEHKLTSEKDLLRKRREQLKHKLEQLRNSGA
UniProt Q969H0: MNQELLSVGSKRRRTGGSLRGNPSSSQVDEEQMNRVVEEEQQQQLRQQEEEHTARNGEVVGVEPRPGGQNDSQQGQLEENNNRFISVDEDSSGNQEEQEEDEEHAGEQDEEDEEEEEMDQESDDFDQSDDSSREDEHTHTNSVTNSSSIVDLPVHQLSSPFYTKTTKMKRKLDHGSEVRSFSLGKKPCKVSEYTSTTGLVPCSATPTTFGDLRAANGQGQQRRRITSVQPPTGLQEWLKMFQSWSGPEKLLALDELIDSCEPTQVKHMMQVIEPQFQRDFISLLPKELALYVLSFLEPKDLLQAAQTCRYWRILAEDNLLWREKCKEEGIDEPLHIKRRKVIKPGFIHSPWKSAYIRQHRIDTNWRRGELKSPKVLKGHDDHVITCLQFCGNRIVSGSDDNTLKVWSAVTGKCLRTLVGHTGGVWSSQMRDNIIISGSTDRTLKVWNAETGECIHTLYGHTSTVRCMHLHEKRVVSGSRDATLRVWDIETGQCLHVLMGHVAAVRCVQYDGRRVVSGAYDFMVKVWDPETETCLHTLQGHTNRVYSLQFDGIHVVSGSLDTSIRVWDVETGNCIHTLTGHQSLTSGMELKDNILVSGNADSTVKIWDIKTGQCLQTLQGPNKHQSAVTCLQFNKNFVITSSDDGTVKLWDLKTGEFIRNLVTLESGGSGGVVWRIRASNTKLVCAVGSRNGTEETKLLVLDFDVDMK
UniProt Q13950: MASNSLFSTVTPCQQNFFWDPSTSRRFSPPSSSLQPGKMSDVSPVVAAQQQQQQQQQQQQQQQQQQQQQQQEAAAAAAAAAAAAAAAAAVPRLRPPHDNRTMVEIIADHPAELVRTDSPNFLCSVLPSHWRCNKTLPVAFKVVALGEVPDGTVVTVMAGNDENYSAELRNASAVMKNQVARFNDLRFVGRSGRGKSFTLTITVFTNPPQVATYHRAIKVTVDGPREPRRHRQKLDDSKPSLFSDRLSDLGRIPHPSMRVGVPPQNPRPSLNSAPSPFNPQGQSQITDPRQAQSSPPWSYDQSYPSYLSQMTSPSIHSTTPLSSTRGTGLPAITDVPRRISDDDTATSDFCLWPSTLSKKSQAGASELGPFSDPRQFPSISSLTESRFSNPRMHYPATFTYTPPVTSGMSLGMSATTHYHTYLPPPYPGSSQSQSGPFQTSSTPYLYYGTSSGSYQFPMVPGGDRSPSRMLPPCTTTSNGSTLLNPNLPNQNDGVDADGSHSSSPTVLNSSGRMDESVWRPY
UniProt Q08775: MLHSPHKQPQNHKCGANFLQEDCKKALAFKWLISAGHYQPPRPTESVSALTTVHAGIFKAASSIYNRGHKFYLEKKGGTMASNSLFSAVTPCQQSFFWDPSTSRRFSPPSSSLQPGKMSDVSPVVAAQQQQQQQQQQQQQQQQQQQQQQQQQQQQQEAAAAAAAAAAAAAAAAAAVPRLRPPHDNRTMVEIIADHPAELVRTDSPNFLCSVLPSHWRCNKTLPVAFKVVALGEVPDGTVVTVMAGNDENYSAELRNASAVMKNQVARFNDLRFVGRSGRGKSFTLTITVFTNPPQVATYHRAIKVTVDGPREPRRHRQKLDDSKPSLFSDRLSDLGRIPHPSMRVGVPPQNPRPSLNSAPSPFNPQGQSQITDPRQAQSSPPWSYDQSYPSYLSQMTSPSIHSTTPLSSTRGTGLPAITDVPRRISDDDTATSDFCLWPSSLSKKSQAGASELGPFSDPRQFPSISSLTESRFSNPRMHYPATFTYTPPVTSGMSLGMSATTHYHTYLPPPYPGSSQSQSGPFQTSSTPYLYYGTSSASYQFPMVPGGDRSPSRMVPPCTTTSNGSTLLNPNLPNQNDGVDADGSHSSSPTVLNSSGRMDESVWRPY

Legend:
[1] = target: HA-tagged full-length c-Myc (not stated (human or mouse cDNA cloned)) (UniProt P01106); assay: co-IP; 293T cells co-transfected with HA-tagged c-Myc and a gradient dose of Flag-tagged RUNX2 or vector control; RUNX2 and FBXW7 found with c-Myc detected by immunoblot
[2] = target: HA-tagged full-length c-Myc (not stated (human or mouse cDNA cloned)) (UniProt P01106); assay: co-IP; 293T cells co-transfected with Flag-tagged RUNX2 (full length or deletion mutants) and HA-tagged c-Myc (full length or deletion mutants); lysed in IP buffer, antibody overnight at 4 °C, protein A/G beads, immunoblot
[3] = target: endogenous c-Myc of 4T1 cells (mouse (endogenous in 4T1)) (UniProt P01108); assay: co-IP; endogenous RUNX2 and c-Myc in MDA-MB-231 and 4T1 cells; IP buffer, antibody overnight at 4 °C, protein A/G beads, immunoblot
[4] = target: endogenous c-Myc of MDA-MB-231 cells (human (endogenous in MDA-MB-231)) (UniProt P01106); assay: as above
[5] = target: His-fused c-Myc protein (UniProt P01106); assay: pull-down; His pull-down: 2 μg His-fused c-Myc, Flag-fused RUNX2 and Ni-NTA beads in 50 μL IP buffer with protease inhibitor cocktail, 4 °C, 6 h; Coomassie staining and immunoblot; both purified

Substance: F-box/WD repeat-containing protein 7 (FBXW7) of 293T cells (from UniProt Q969H0 1-707)
- binding [1]: binds

Substance: endogenous RUNX2 of MDA-MB-231 cells (from UniProt Q13950 1-521)
- binding [4]: binds

Continued, values first:

- binding [2]: binds
Substance: Flag-tagged full-length RUNX2 (Runt-related transcription factor 2) (from UniProt Q13950 1-521)

- binding [3]: binds
Substance: endogenous RUNX2 of 4T1 cells (from UniProt Q08775 1-607)

- binding [5]: binds
Substance: recombinant Flag-fused RUNX2 protein (from UniProt Q13950 1-521)
